Article PMC5875879
These are yes or no findings as the source states them, for the method shown. Binding seen in cells or lysates may run through a third protein. Here binding means that the protein was enriched with, or labelled near, the bait; the list need not be complete. For some assays here: No binding means not detected with the bait. For some assays here: Tags and fused reporters may be left off the sequences shown.

The chains behind the UniProt entries cited, without tags or fusion partners.
UniProt Q6NZY4: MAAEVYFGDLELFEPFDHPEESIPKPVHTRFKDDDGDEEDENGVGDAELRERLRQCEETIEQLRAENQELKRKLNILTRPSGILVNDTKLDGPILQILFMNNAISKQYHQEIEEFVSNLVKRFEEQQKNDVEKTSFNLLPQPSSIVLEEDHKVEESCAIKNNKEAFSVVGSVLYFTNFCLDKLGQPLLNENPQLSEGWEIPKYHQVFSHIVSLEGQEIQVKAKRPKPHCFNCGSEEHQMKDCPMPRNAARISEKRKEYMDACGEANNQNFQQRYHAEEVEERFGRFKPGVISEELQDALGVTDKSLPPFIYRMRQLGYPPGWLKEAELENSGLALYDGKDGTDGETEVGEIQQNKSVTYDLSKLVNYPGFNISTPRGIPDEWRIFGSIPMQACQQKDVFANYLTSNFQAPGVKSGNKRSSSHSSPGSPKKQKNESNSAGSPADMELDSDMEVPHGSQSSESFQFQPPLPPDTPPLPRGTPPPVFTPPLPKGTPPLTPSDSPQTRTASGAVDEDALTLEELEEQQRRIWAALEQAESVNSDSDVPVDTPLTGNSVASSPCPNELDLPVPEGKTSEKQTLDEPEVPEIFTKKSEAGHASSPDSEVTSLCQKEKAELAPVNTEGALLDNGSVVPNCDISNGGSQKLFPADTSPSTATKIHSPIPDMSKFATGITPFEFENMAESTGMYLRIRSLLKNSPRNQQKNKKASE
UniProt Q9Y580: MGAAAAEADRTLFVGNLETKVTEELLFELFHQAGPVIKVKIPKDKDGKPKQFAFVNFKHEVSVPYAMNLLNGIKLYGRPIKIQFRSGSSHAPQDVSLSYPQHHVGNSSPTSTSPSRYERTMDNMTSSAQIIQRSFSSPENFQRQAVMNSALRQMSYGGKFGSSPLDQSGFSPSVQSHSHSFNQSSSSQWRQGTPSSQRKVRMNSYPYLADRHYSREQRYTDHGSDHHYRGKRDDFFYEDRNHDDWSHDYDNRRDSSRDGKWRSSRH
UniProt O60293: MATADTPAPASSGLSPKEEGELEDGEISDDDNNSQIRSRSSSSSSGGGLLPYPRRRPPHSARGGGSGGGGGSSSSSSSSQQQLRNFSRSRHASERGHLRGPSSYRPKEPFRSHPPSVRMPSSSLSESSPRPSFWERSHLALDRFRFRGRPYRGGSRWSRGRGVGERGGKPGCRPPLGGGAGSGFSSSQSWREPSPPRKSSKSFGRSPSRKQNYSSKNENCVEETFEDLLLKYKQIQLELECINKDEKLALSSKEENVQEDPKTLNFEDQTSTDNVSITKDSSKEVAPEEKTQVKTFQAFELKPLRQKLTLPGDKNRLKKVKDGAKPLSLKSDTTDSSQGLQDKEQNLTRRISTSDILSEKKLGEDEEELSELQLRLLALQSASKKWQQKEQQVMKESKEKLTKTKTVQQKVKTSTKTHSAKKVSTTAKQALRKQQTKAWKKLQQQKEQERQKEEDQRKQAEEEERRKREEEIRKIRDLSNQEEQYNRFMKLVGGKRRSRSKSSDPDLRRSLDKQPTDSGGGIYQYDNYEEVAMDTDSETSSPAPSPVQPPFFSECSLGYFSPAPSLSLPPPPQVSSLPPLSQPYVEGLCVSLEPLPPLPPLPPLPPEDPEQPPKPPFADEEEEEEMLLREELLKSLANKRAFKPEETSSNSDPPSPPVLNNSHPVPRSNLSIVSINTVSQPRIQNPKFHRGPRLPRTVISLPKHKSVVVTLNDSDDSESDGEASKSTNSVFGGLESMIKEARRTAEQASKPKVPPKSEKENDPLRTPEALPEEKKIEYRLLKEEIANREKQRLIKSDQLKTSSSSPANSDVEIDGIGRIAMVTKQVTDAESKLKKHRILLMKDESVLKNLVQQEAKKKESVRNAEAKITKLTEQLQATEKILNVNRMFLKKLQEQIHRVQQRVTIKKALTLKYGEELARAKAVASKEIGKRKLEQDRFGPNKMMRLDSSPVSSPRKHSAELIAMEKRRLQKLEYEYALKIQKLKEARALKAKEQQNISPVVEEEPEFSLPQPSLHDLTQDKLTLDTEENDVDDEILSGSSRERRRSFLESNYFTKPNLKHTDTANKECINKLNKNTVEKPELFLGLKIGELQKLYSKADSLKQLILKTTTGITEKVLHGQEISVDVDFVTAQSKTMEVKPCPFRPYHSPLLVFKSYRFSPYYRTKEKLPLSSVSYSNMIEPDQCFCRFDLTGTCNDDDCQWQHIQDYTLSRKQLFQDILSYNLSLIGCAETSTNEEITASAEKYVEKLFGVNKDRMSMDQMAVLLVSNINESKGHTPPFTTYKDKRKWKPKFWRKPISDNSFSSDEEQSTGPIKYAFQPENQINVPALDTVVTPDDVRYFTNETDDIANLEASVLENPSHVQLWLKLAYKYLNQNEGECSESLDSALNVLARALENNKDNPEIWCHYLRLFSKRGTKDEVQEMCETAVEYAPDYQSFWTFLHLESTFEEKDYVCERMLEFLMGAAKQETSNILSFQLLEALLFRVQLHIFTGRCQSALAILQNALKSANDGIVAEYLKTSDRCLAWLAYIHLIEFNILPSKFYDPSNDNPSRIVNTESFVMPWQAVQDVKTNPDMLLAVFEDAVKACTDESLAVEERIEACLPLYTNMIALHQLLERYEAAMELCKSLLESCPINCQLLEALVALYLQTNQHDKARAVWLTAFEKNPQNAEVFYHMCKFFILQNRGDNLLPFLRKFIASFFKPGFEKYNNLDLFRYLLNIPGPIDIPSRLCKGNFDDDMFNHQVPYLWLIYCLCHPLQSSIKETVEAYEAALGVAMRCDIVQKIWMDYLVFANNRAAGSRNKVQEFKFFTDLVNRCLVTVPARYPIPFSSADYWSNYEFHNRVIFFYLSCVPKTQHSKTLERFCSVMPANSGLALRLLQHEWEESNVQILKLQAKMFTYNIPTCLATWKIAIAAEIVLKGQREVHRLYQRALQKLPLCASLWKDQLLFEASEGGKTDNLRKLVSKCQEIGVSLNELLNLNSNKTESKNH

T1: Flag-HA-RRP6 (human) (UniProt Q01780)
T1 sequence: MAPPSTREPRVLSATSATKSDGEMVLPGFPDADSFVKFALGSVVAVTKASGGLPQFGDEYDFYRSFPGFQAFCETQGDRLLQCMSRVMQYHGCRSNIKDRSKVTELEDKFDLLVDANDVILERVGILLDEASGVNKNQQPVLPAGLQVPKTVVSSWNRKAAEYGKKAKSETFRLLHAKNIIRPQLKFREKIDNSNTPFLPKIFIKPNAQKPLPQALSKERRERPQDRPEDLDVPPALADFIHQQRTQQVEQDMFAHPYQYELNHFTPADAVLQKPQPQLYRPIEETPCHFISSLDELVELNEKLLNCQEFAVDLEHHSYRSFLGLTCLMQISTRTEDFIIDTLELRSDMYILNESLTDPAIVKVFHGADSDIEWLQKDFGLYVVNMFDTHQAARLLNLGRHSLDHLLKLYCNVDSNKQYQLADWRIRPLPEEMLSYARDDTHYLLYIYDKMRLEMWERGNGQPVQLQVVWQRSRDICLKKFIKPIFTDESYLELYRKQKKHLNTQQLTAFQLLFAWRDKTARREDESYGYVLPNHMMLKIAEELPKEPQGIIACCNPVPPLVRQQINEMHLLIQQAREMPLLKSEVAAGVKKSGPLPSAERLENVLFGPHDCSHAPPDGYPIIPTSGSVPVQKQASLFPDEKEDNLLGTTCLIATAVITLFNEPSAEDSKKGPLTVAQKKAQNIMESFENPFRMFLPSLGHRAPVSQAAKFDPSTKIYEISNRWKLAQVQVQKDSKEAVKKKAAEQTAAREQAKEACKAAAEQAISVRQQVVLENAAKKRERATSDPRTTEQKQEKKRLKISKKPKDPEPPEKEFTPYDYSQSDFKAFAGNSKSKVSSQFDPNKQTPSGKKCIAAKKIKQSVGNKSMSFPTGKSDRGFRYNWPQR

T2: Flag-HA-RRP6 (human), Q01780
T2 chain: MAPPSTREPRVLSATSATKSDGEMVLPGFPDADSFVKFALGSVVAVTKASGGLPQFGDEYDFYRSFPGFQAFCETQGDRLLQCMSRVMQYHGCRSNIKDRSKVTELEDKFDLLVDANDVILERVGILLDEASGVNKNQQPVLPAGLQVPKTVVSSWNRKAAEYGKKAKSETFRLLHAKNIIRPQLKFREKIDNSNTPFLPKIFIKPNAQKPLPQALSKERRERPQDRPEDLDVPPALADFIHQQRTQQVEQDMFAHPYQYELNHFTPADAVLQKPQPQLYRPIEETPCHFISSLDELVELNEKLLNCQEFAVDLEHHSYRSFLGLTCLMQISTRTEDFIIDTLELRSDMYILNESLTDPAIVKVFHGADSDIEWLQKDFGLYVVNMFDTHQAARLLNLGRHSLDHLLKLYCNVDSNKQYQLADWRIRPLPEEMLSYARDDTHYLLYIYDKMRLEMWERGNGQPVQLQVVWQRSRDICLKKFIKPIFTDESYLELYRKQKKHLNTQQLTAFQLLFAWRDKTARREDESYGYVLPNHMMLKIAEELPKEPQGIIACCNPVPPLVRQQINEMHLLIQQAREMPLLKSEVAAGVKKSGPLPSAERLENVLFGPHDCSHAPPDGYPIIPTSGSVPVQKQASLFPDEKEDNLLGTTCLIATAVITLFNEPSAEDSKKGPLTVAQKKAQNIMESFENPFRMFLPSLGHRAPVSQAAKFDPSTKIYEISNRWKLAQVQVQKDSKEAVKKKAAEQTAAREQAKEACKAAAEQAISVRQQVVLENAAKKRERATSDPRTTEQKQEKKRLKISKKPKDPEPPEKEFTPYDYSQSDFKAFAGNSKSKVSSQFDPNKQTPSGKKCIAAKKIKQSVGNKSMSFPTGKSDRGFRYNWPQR

T3: Flag-HA-MTR4, P42285
T3 chain: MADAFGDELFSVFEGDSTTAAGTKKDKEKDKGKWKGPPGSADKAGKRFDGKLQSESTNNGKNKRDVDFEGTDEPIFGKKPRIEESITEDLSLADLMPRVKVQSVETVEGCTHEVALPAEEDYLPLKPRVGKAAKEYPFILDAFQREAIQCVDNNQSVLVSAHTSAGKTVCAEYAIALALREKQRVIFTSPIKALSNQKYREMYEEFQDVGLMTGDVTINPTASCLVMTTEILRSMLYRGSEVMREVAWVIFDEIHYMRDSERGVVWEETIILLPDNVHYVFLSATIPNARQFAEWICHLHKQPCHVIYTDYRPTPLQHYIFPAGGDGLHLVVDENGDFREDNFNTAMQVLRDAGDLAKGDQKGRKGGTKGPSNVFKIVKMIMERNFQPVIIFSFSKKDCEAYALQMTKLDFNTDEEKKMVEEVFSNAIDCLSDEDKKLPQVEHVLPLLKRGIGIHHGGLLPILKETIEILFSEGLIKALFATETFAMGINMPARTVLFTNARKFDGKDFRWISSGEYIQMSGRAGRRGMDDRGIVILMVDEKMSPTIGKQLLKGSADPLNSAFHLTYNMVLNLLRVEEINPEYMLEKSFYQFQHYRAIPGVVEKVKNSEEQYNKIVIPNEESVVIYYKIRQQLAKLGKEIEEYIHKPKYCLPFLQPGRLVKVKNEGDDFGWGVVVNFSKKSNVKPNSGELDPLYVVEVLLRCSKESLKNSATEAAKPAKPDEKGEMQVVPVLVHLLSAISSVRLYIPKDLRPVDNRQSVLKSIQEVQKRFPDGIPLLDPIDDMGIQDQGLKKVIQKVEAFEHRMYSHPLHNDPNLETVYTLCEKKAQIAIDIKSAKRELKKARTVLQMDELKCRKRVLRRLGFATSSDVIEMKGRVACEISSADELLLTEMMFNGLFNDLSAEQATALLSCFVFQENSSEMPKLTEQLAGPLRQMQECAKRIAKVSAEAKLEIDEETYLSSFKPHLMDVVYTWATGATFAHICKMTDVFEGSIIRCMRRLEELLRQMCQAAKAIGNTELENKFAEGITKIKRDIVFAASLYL


Key:
Assay in all cases: affinity purification with mass spectrometry
[1] = biological target: Flag-HA-MTR4 (UniProt P42285)
[2] = biological target: T1, Flag-HA-RRP6 (human)
[3] = biological target: T2, Flag-HA-RRP6 (human), Q01780; conditions: remark: other sources report otherwise
[4] = biological target: T3, Flag-HA-MTR4, P42285; conditions: remark: other sources report otherwise

binding [1]	binding [2]	Molecule	also measured
binds	binds	ZCCHC8 (from UniProt Q6NZY4 1-707)	–
–	binds	RBM7 (from UniProt Q9Y580 1-266)	–
binds	–	ZFC3H1 (from UniProt O60293 1-1989)	–
binds	binds	MPP6 (protein, UniProt Q99547 1-160) MAAERKTRLSKNLLRMKFMQRGLDSETKKQLEEEEKKIISEEHWYLDLPELKEKESFIIEEQSFLLCEDLLYGRMSFRGFNPEVEKLMLQMNAKHKAEEVEDETVELDVSDEEMARRYETLVGTIGKKFARKRDHANYEEDENGDITPIKAKKMFLKPQD	–
–	–	DIS3, Q9Y2L1 1-958 (protein) MLKSKTFLKKTRAGGVMKIVREHYLRDDIGCGAPGCAACGGAHEGPALEPQPQDPASSVCPQPHYLLPDTNVLLHQIDVLEDPAIRNVIVLQTVLQEVRNRSAPVYKRIRDVTNNQEKHFYTFTNEHHRETYVEQEQGENANDRNDRAIRVAAKWYNEHLKKMSADNQLQVIFITNDRRNKEKAIEEGIPAFTCEEYVKSLTANPELIDRLACLSEEGNEIESGKIIFSEHLPLSKLQQGIKSGTYLQGTFRASRENYLEATVWIHGDNEENKEIILQGLKHLNRAVHEDIVAVELLPKSQWVAPSSVVLHDEGQNEEDVEKEEETERMLKTAVSEKMLKPTGRVVGIIKRNWRPYCGMLSKSDIKESRRHLFTPADKRIPRIRIETRQASTLEGRRIIVAIDGWPRNSRYPNGHFVRNLGDVGEKETETEVLLLEHDVPHQPFSQAVLSFLPKMPWSITEKDMKNREDLRHLCICSVDPPGCTDIDDALHCRELENGNLEVGVHIADVSHFIRPGNALDQESARRGTTVYLCEKRIDMVPELLSSNLCSLKCDVDRLAFSCIWEMNHNAEILKTKFTKSVINSKASLTYAEAQLRIDSANMNDDITTSLRGLNKLAKILKKRRIEKGALTLSSPEVRFHMDSETHDPIDLQTKELRETNSMVEEFMLLANISVAKKIHEEFSEHALLRKHPAPPPSNYEILVKAARSRNLEIKTDTAKSLAESLDQAESPTFPYLNTLLRILATRCMMQAVYFCSGMDNDFHHYGLASPIYTHFTSPIRRYADVIVHRLLAVAIGADCTYPELTDKHKLADICKNLNFRHKMAQYAQRASVAFHTQLFFKSKGIVSEEAYILFVRKNAIVVLIPKYGLEGTVFFEEKDKPNPQLIYDDEIPSLKIEDTVFHVFDKVKVKIMLDSSNLQHQKIRMSLVEPQIPGISIPTDTSNMDLNGPKKKKMKLGK	binding [3]: no binding
no binding	–	DIS3 (protein, UniProt Q9Y2L1 1-958) MLKSKTFLKKTRAGGVMKIVREHYLRDDIGCGAPGCAACGGAHEGPALEPQPQDPASSVCPQPHYLLPDTNVLLHQIDVLEDPAIRNVIVLQTVLQEVRNRSAPVYKRIRDVTNNQEKHFYTFTNEHHRETYVEQEQGENANDRNDRAIRVAAKWYNEHLKKMSADNQLQVIFITNDRRNKEKAIEEGIPAFTCEEYVKSLTANPELIDRLACLSEEGNEIESGKIIFSEHLPLSKLQQGIKSGTYLQGTFRASRENYLEATVWIHGDNEENKEIILQGLKHLNRAVHEDIVAVELLPKSQWVAPSSVVLHDEGQNEEDVEKEEETERMLKTAVSEKMLKPTGRVVGIIKRNWRPYCGMLSKSDIKESRRHLFTPADKRIPRIRIETRQASTLEGRRIIVAIDGWPRNSRYPNGHFVRNLGDVGEKETETEVLLLEHDVPHQPFSQAVLSFLPKMPWSITEKDMKNREDLRHLCICSVDPPGCTDIDDALHCRELENGNLEVGVHIADVSHFIRPGNALDQESARRGTTVYLCEKRIDMVPELLSSNLCSLKCDVDRLAFSCIWEMNHNAEILKTKFTKSVINSKASLTYAEAQLRIDSANMNDDITTSLRGLNKLAKILKKRRIEKGALTLSSPEVRFHMDSETHDPIDLQTKELRETNSMVEEFMLLANISVAKKIHEEFSEHALLRKHPAPPPSNYEILVKAARSRNLEIKTDTAKSLAESLDQAESPTFPYLNTLLRILATRCMMQAVYFCSGMDNDFHHYGLASPIYTHFTSPIRRYADVIVHRLLAVAIGADCTYPELTDKHKLADICKNLNFRHKMAQYAQRASVAFHTQLFFKSKGIVSEEAYILFVRKNAIVVLIPKYGLEGTVFFEEKDKPNPQLIYDDEIPSLKIEDTVFHVFDKVKVKIMLDSSNLQHQKIRMSLVEPQIPGISIPTDTSNMDLNGPKKKKMKLGK	–
–	–	C1D, Q13901 1-141 (protein) MAGEEINEDYPVEIHEYLSAFENSIGAVDEMLKTMMSVSRNELLQKLDPLEQAKVDLVSAYTLNSMFWVYLATQGVNPKEHPVKQELERIRVYMNRVKEITDKKKAGKLDRGAASRFVKNALWEPKSKNASKVANKGKSKS	binding [4]: binds
–	binds	C1D (protein, UniProt Q13901 1-141) MAGEEINEDYPVEIHEYLSAFENSIGAVDEMLKTMMSVSRNELLQKLDPLEQAKVDLVSAYTLNSMFWVYLATQGVNPKEHPVKQELERIRVYMNRVKEITDKKKAGKLDRGAASRFVKNALWEPKSKNASKVANKGKSKS	–
binds	–	RRP6 (endogenous) (protein, UniProt Q01780 1-885) MAPPSTREPRVLSATSATKSDGEMVLPGFPDADSFVKFALGSVVAVTKASGGLPQFGDEYDFYRSFPGFQAFCETQGDRLLQCMSRVMQYHGCRSNIKDRSKVTELEDKFDLLVDANDVILERVGILLDEASGVNKNQQPVLPAGLQVPKTVVSSWNRKAAEYGKKAKSETFRLLHAKNIIRPQLKFREKIDNSNTPFLPKIFIKPNAQKPLPQALSKERRERPQDRPEDLDVPPALADFIHQQRTQQVEQDMFAHPYQYELNHFTPADAVLQKPQPQLYRPIEETPCHFISSLDELVELNEKLLNCQEFAVDLEHHSYRSFLGLTCLMQISTRTEDFIIDTLELRSDMYILNESLTDPAIVKVFHGADSDIEWLQKDFGLYVVNMFDTHQAARLLNLGRHSLDHLLKLYCNVDSNKQYQLADWRIRPLPEEMLSYARDDTHYLLYIYDKMRLEMWERGNGQPVQLQVVWQRSRDICLKKFIKPIFTDESYLELYRKQKKHLNTQQLTAFQLLFAWRDKTARREDESYGYVLPNHMMLKIAEELPKEPQGIIACCNPVPPLVRQQINEMHLLIQQAREMPLLKSEVAAGVKKSGPLPSAERLENVLFGPHDCSHAPPDGYPIIPTSGSVPVQKQASLFPDEKEDNLLGTTCLIATAVITLFNEPSAEDSKKGPLTVAQKKAQNIMESFENPFRMFLPSLGHRAPVSQAAKFDPSTKIYEISNRWKLAQVQVQKDSKEAVKKKAAEQTAAREQAKEACKAAAEQAISVRQQVVLENAAKKRERATSDPRTTEQKQEKKRLKISKKPKDPEPPEKEFTPYDYSQSDFKAFAGNSKSKVSSQFDPNKQTPSGKKCIAAKKIKQSVGNKSMSFPTGKSDRGFRYNWPQR	–
